Assay results as given in PMC12560929.
Results are given in words; binding and its absence hold for the method and conditions named. Binding seen in cells or lysates may run through a third protein. These calls come from enrichment with a bait or labelling near it, and not all partners need be listed.

Target: GST-SPX fusion protein (Siniperca chuatsi spexin, neuropeptide Q) (Siniperca chuatsi)
Assay: affinity purification with mass spectrometry; GST pull-down: 500 ug GST-SPX (control: GST alone) on magnetic beads, 2 h at room temperature; S. chuatsi liver total protein extract added, made up to 1 mL with IP dilution buffer, 4 °C for 1 min; eluted at 95 °C; SDS-PAGE, silver staining, bands excised, LC-MS/MS (MaxQuant against UniProt; at least 2 unique peptides per protein); only the target purified

B1: 60 kDa heat shock protein, mitochondrial (protein, UniProt A0A3G1HT24 1-576)
chain: MFRLPTVMRQVRPVCRALAPHLTRAYAKDVKFGADARALMLQGVDLLADTVAVTMGPKGRTVIIEQSWGSPKVTKDGVTVAKSIELKDKYKNIGARLVQDVANNTNEEAGDGTTTATVLARAIAKEGFDTISKGANPVEIRRGVMAAVDTIISELKKLSKPVTTPEEIAQVATISANGDVEIGNIISNAMKRVGRKGVITVKDGKTLHDELEIIEGMKFDRGYISPYFINTAKGQKCEFQDAYLLLSEKKISSVQSIVPALEIANQHRKPLVIVAEDVDGEALSTLVLNRLKVGLQVVAVKAPGFGDNRKNQLRDMAIATGGTVFGDDAVGLALEDIQAHDFGKVGEVQITKDDTLLLKGGGSPAEVEKRAAEIMEQLESTTSDYEKEKLNERLAKLSDGVAVLKIGGTSDVEVNEKKDRVTDALNATRAAVEEGIVPGGGCALLRCIPALDTIKTVNADQTIGVDIIRRALRIPAMTIAKNAGVEGSLVVEKILQGPPEIGYDAMQGEYVNMVEKGIIDPTKVVRTALLDAAGVASLLSTAEAVVTEIPKEEKEMPGGGMGGMGGMGGMGGGMGF
**Q.** Which binding does the source give for B1 here?
**A.** binds

B2: Cytochrome c oxidase subunit 2 (protein, UniProt F8UZB6 1-230)
chain: MAHPSQLGFQDAASPVMEELLHFHDHALMIVFLISTLVLYIIVAMVSTKLTNKYILDSQEIEIIWTVLPAVILILIALPSLRILYLMDEVNDPHLTIKAMGHQWYWSYEYTDYEDLGFDSYMIPTQDLTPGQFRLLEADHRMVIPVESPIRVLVSAEDVLHSWAVPALGVKMDAVPGRLNQTAFIASRPGVFYGQCSEICGANHSFMPIVVEAVPLEHFENWSSLMLEDA
**Q.** How did the binding turn out when B2 was run?
**A.** binds

B3: RNA helicase (DDX41) (protein, UniProt A0A7H1RFY2 1-614)
chain: METDNRPKKRSHGEDERSGSEGTEDDDYVPYIPVKIRKQQIVQKMLRLRGKAVDEEQKDSGEEQRDEDEGLGPRSNVSLLDQHQHLKEKAEARKESAKEKQLKEEEKILESVAEGRALMSVKEMAKGIIYDDPIKTSWKPPRYILNMPGTRHERVRKKFHILVDGDGIPAPIKSFREMKFPPAILKGLKKKGIAHPTPIQIQGIPTVLSGRDMIGIAFTGSGKTLVFTLPITMFALEQEKRLPFFKREGPYGLIICPSRELARQTHSIIEYYCKLLEEEGAPQLRTALCIGGMSVKEQMEVVKHGVHMMVATPGRLMDLLQKKMVSLDICRYLALDEADRMIDMGFEEDIRTIFSYFKGQRQTLLFSATMPKKIQNFAKSALVKPITINVGRAGAASLDVIQEVEYVKEEAKMVYLLECLQKTPPPVLLFAEKKADVDAIHEYLLLKGVEAVAIHGGKDQEERTKAIEAFKEGKKDVLVATDVASKGLDFPAIQHVVNYDMPEEIENYVHRIGRTGRSGKTGIATTFINKGCDESVLMDLKALLVEAKQKVPPVLQVLQTGDETMLDIGGERGCTFCGGLGHRITDCPKLEAMQTKQVTNIGRKDYLAHSSMDF
**Q.** With B3 as the binder, how does the binding read?
**A.** binds

B4: Natural resistance-associated macrophage protein (protein, UniProt E2IFW3 1-559)
chain: MKGRKNEKSKLKDSPQENGVQTNQYSSISPPASPVAQDEPFSTYFEDKVAIPENGNQVFSFRKLWAFTGPGFLMSIAYLDPGNIESDLQSGAKAGFKLLWVLLGATIIGLLLQRLAARLGVVTGMHLAEVCNRQYPIIPRIILWLMVELAIIGSDMQEVIGCAIALNLLSVGRIPLWGGVLITITDTFVFLFLDKYGLRKLEAFFGFLITVMALSFGYEYVLVKPNQGELLKGMFIPYCSDCGPVQMEQAVGIVGAVIMPHNIYLHSALVKSRDVNRANKREVKEANKYFFIESCVALFVSFLINVFVVAVFAQAFYNKTNMEVNALCNATGSPHTDLFPLNNGTLEVDIYKGGVVLGCFFGPAALYIWAIGILAAGQSSTMTGTYSGQFVMEGFLNLRWSRFARVLLTRSIAITPTLLVAIFQDVQHLTGMNDFLNVLQSMQLPFALIPILTFTSLTSIMNDFANGLVWKISGGIVILVVCAINMYFVVIYVTSLNSVLLYVLAALLSVAYLCFVGYLAWHCLVALGVSCLDFGSRMGLSQHTDMYLMNDMDTGSLSG
**Q.** How did the binding turn out when B4 was run?
**A.** binds

B5: Nonspecific cytotoxic cell receptor protein 1 (protein, UniProt A0A0K2DRS2 1-233)
chain: MSAAEWKKRCEAEWSLQVCPMPDSLDWKVVCEAKPLGRNLLKNPAPLGLSKDTPPPEPKLSEVPTHGPPRFQPDGDFSGWITSTEVLPYDTSGIPAGAAICALPQYSWFSMEQVVDLKAEGLWDELLDDFQPEIVIQDWYEERQLHQSIYQLHVKLLGADKSTVISEHTVNPTEDLSTYSHTWKEVSHVFSGYGPGVRYVYFLHRLKNKFMMEFYPTLFTGSAVIAKPTKTSS
**Q.** Which binding does the source give for B5 here?
**A.** binds

B6: Interferon-induced GTP-binding protein Mx (protein, UniProt Q6TN15 1-626)
chain: MNTLNQQYEEKVRPCIDLIDSLRSLGVEKDLALPAIAVIGDQSSGKSSVLEALSGVALPRGSGIVTRCPLELKMKRKKEGEEWYGKISYQNHEEEIEDPADVEKKIREAQDEMAGVGVGISDDLISLEIGSPGVPDLTLIDLPGIARVAVKGQPENIGDQIKRLIQTFITKQETISLVVVPCNVDIATTEALNMAQRVDPDGERTLGILTKPDLVDKGTEDTVVEIVHNEVIHLKKGYMIVKCRGQKEITERVSLTEAIERETAFFREHVYFHTLYNEGHATVPKLAEKLTLELVHHIEKSLPRLEEQIEEKLTQTRAELERYGNGPPSDAAEKLIFLIDKVTAFTQDAISLTTGEELKCGDRLNVFSMLRREFGQWNAHLSRSGEIFNKKIEKEVEEYEERYRGRELPGFINYKTFEVMVKEQIKQLEEPAVKRLKDVGDAVRKLLVQLAQSSFTGFPNLVKIAKARIEAIKQEKESTAESTLRTQFKMELLVYSQDRTYSSSLSDRKTEEDEEEDKRKVKTFHKERSILYRMDNHATLQELMLHLKSYYKIASQRLADQIPLVIRYQMLQESASQLHREMMQVLQDKENLEFLLKEDSDIGSKRAALQSRLKRLMKARAYLVEF
**Q.** With B6 as the binder, how does the binding read?
**A.** binds
